Test results reported in the supplement of paper PMC12823440, “Inhibitors supercharge kinase turnover through native proteolytic circuits” (Nature, 2025).
The list shows a part of the results. Hit calls seldom repeat between salt and free forms of one compound.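 Kinases, fused to nanoluciferase, were expressed in K562 cells; luminescence was measured every 4 h from 2 to 18 h as percent of control (DMSO = 100%, positive control = 0%). A time point is decreased if signal falls significantly (2 sigma). Hits were called by the authors by a rule that is not shown; the count of time points alone does not decide it.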

Amino acid sequences for entries named in this document (tags omitted).
UniProt P21860, whole entry: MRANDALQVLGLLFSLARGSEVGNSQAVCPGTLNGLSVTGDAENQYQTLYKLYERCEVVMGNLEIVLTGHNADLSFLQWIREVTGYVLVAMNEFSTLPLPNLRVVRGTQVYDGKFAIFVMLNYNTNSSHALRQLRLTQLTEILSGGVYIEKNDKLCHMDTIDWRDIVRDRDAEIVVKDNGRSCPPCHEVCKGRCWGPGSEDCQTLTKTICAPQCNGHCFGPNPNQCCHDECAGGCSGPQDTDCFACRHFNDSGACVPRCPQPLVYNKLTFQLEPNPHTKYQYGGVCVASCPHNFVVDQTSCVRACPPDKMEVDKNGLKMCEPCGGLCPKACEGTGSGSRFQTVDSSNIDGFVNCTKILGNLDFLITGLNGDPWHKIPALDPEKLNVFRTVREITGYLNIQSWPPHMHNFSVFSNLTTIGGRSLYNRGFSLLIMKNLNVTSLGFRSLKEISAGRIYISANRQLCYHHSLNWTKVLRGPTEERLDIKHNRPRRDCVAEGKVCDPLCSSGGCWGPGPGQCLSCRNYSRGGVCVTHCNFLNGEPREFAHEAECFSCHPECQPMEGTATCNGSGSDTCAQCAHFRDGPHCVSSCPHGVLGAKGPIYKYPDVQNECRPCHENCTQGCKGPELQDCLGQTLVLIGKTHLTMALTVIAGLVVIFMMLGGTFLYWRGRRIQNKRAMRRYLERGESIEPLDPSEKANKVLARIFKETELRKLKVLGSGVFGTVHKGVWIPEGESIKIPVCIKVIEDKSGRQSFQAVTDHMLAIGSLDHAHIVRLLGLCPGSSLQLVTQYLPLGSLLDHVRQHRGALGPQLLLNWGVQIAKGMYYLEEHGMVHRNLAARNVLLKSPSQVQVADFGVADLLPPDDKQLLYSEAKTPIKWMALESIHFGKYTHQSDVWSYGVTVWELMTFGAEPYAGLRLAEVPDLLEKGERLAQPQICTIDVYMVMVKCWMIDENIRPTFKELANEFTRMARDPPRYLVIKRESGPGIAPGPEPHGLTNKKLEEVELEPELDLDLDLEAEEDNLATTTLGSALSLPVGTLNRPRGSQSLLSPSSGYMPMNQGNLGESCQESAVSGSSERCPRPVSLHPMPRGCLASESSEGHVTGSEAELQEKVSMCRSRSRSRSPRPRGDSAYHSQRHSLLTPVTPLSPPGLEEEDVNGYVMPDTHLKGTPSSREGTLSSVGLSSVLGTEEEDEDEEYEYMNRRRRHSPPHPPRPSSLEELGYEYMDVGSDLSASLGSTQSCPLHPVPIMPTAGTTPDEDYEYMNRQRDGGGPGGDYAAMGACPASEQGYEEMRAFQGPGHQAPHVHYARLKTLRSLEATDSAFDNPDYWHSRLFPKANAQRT

What follows are compounds tested against ERBB3 (UniProt P21860) (assay: kinase-Nluc reporter destabilization hit call (1 = scored as downregulated) (binary); higher = compound decreases kinase abundance). Conditions: K562; 2-18 h.

kinase-Nluc reporter destabilization hit call, inactive:
CC(C)Cn1ncc2cc(Oc3ccc(F)cc3F)c(C(=O)NCCN(C)C)cc21 [p38α inhibitor 1] (10 µM) 0
CNc1cc2c(Nc3cccc(Br)c3)ncnc2cn1 (10 µM) 0
CN1C(=O)[C@@H](NC(=O)c2cc(Cc3ccccc3)on2)COc2ccccc21 (10 µM) 0
CC(C1CC1)n1cnc2c(NCc3cccc(C(F)(F)F)c3)nc(NCCN(C)C)nc21 (stereo not drawn) (10 µM) 0
Cc1n[nH]c2ncc(C(=O)N3CCC[C@H]3c3ccc(Cl)cc3)cc12 (10 µM) 0
COc1ccc(Br)c(C=O)c1O [6-Bromo-2-hydroxy-3-methoxybenzaldehyde] (10 µM) 0
Oc1ccc(-c2cnc3ccc(NCc4ccco4)nn23)cc1 [IRAK inhibitor 2] (2.5 µM) 0
C[C@H](Nc1cc2c(-c3ccc4c(c3)OCO4)noc2cn1)c1ccccc1 (10 µM) 0
Nc1ccc(C(=O)Nc2cccc(-c3nc(N4CCOCC4)c4oc5ncccc5c4n3)c2)cn1 (10 µM) 0
CCOC(=O)c1c(N2CCc3ccc(OC)cc3C2)oc(C=C2C=Nc3ncccc32)c1O (10 µM) 0
Cc1ncc(-c2cc(F)c(O)c(F)c2)cc1-c1cc(F)c(O)c(F)c1 (10 µM) 0
N=C(NC(=N)N1CCCC1)Nc1ccc(OC(F)(F)F)cc1 (10 µM) 0
CC1(C)CN(C(=O)c2ccc(-c3cccc4nc(NC(=O)C5CC5)nn34)cc2)C1 [Solcitinib] (10 µM) 0

Quoted from the results shown, two compounds:
kinase-Nluc reporter destabilization hit call, inactive:
CNc1cc2c(Nc3cccc(Br)c3)ncnc2cn1 (10 µM) 0
CN1C(=O)[C@@H](NC(=O)c2cc(Cc3ccccc3)on2)COc2ccccc21 (10 µM) 0
